Among all 52,000 sequences or so, about 210 (0.4%) were called active.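 The calls were made as follows: active = gene whose silencing raises cell survival under the drug, median off-target-corrected z-score across its silencing RNAs 2 or more; inactive = the rest.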 The list shows a part of the results.

This assay in a line: Resistance to Poly (ADP-Ribose) Polymerase inhibitor: Gene Identification via Genome-wide siRNA Screen. The following applies: mouse BRCA2 R2336H ES cells, olaparib, CellTiter-Glo viability; stronger effect = higher value. The method, boiled down:
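Genome-wide siRNA screen (3 siRNAs/gene, 20 nM) in mouse ES cells carrying hypomorphic BRCA2 R2336H; olaparib 500 nM added 48 h post-transfection, CellTiter-Glo viability 72 h later. Normalized to plate-median negative control; MAD z-scores, gene median, seed-adjusted.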
As for GGGACUGUCUCCAAGACUCTT against Nkx2-9, the z-score was inactive: -2.11.

Turning to GGAAAGUGAUCCAGAAAUGTT against Olfr1026, the z-score is inactive: 0.14.

With GGUAAAAUACCUAAGAACCTT against Pnma2, the z-score is inactive: 0.923.

Regarding CGAAGCUGGUUUACCAAAATT against Gna14, the z-score was inactive: -2.28.

Turning to GGAUGGGUCCAUUGAGCCATT against Lrpap1, the z-score is inactive: -3.34.

As for GGGAGGAAGGAAGAGUAUUTT against Itga4, the z-score was inactive: 0.225.

As to “GGAGGAAUUUCAAAUACUATT against A530032D15Rik”, the z-score is inactive: -0.553.

As for GGACAUGUGUGCAAAUCCATT against Slc35f3, the z-score is inactive: 0.558.

With “GCAGACAGAAGAACACCAGTT against 1700024G13Rik”, the z-score is inactive: 1.12.

Turning to GGUGCUUCCAACUUCACAGTT against Bcorl1, the z-score was inactive: -0.782.

“GGACUUCAGCAAAUCCAAGTT against 4931415M17”: the z-score was inactive: -0.428.

As to GCAGUCACCUUCAAAAAAATT against BC018101, the z-score is inactive: 0.903.

GGAGCAAGAUGUUUCUGAATT against BC021790: the z-score is inactive: 0.393.

On to “GGAGUUAUUUCCUAGAACATT against 2510004L01Rik”, for which the z-score was inactive: 0.339.

Take GCUGGCACAAUCUUUCAAATT against Cdh8: the z-score is inactive: 0.437.

Turning to GCUUGGAUUGCCCUGAUUUTT against Olfr640, the z-score is inactive: -1.02.

For CCAGUUAAGGCCAUUGUAATT against Jundm2, the z-score is inactive: -1.16.

Regarding GGCCAUUGGACACAGAAUCTT against Rpl35a, the z-score is inactive: -3.24.

Take CCAUGUCAGUAUCUCAUGUTT against Pdc: the z-score was inactive: -0.0468.

For “CGGACUGUGUGUGCCAAGUTT against 2410075D05Rik”, the z-score was inactive: -2.14.

With GCUUUGGCUCAAAGCACGUTT against Mcm3, the z-score is inactive: -0.0953.

With GCCGAUGUGUUAGUGGCUATT against Ddx28, the z-score is inactive: -0.644.

Consider GGGUCCUCUGCUCAUUUGGTT against Wdr17, for which the z-score was inactive: -0.669.

Turning to “GCUAGAAAAAAAUCAGUUGTT against D3Ertd194e”, the z-score is inactive: 0.309.

Consider “CCAAAAUUAAUGUGACAGATT against 2210408I21Rik”, for which the z-score is inactive: 0.33.

GCCUUUCAUGGAUUAACCUTT against Mlze: the z-score is inactive: 0.618.

As to GGUCCACUUAGUGGCUUAATT against Atp5f1, the z-score is inactive: -1.51.

For the sequence GGAGUUAAAAGAUGUAAUCTT against Pip5k3, the z-score is inactive: 0.249.

As for GGAUUUCUUAGCCAUGUUCTT against Lpxn, the z-score was inactive: -0.208.

On to “GGGCAAACCCAAGACCUUATT against 4933405A16Rik”, for which the z-score was inactive: -0.423.

For the sequence CCAAACAUAGAUGUUACUGTT against Ace2, the z-score is inactive: 0.24.

GGCCAUGGUGGCGUGUUAUTT against Egln2: the z-score was inactive: 0.716.

On to CGUUGUGUAUAGGUCUUUATT against M6pr, for which the z-score is inactive: -1.03.

For the sequence “GGGCUGAUGUGGGCUAAAUTT against 1110001E17Rik”, the z-score is active: 4.07.

With GCUUACUCUGUGGAUCCAGTT against LOC432436, the z-score was inactive: -1.43.

As for GGAGAUGUUACACAAAAUCTT against 4-Sep, the z-score is inactive: 0.723.

For the sequence “GAAGAAGCCUACAGUGACCTT against D5Ertd689e”, the z-score is inactive: 0.637.

For GUGACCAGCUAUAAUCAGATT against Ins1, the z-score is inactive: -0.393.

For the sequence GGUCCACACUUUCUGUCUUTT against Mkks, the z-score was inactive: 0.372.

Take CGGGCGUGUGUUUGAAAAGTT against Cpox: the z-score was inactive: -0.0416.

Consider GGUUAAAGGGAAUUUUAUGTT against Zcchc14, for which the z-score was inactive: -0.472.

Regarding GGAGGAAGAGGUCAUCUUCTT against Olfr1378, the z-score was inactive: 0.947.

On to GGGAUUAUUCAGUCUAUGUTT against Lgals12, for which the z-score was inactive: -1.31.

For GCAGAUCCGAAUCAAUGAGTT against Ptk9l, the z-score is inactive: 0.0367.

Take GGUAAUGAGACGCGGUUUATT against Ina: the z-score is inactive: 0.136.

Take GGAAAAGAUUUUUCUCUGATT against Usp26: the z-score is inactive: -0.291.

As for GGUGCUUUUACAUCUCACATT against Cd72, the z-score is inactive: 0.0574.

GGAAGGAAGAGAUGAAGAATT against Cetn1: the z-score is inactive: -1.45.

As to CCCUAUAUAUCCACAUGUUTT against Mc3r, the z-score is inactive: -1.72.

GCUUAUACCUCCAUCAUCGTT against Cops8: the z-score is inactive: -1.87.

As to GGCUAACGAAGAAUAUCAATT against Tusc3, the z-score was inactive: 0.847.

GCACCACUAUUUUAGCAUATT against Rap1b: the z-score was inactive: -0.346.

Regarding GGCGGAUGACCUAGAGGAUTT against BC013672, the z-score was inactive: 0.23.

Regarding CGAUGAAAUGAUAUGCAAATT against Jarid1b, the z-score is inactive: 1.61.

As for “GGAAAUAAAGUGAGUUUUGTT against 5730466H23Rik”, the z-score was inactive: 2.37.

For the sequence “CCUGCUCCUUACAUCUCGCTT against A430097D04Rik”, the z-score is inactive: -0.0558.

For the sequence CCUACAAACCAGAAGAGGUTT against Akr1c19, the z-score is inactive: 0.291.

With CCGCUUUCUUGCCAUUCACTT against Olfr576, the z-score is inactive: 0.31.

Turning to “GCAUUUUGAGAAAGCAAUUTT against 2410005O16Rik”, the z-score was inactive: 0.565.

Consider GGCUUUUGUAACGAAAGGCTT against Wif1, for which the z-score was inactive: 2.08.

“GGGUGUGAAGUCAUGGUAUTT against 6430573F11Rik”: the z-score is inactive: 0.498.

On to GGAAUCCUUGAGACAGAUUTT against Impg1, for which the z-score was inactive: -2.3.

Turning to GCCACUAGCCUUUCAAAAGTT against Muc1, the z-score was inactive: 1.6.

Take “GGAUGUAGGUGACUGUCGATT against 4932411K12”: the z-score was inactive: -2.19.

With “GGAAGAUGAUCUUGACCAGTT against 4930455F23Rik”, the z-score was inactive: 2.96.

Take GGUCAUUCUGUACAUACAUTT against Slc37a3: the z-score was inactive: -2.47.

With CCAUGUUCAGAAGAGAAUATT against Igsf11, the z-score was inactive: -0.248.

For the sequence GGAAAUAUGAUCCAUCCUGTT against Zfp282, the z-score is inactive: 1.65.

Turning to CCUUCUAUGCCUCCUACAATT against LOC626359, the z-score is inactive: -0.562.

For CCUUAAUAAAUCUAGUGGCTT against Stmn3, the z-score is inactive: 0.0477.

On to “GGUGAUGCUGGAAUCUUCCTT against 1110030H18Rik”, for which the z-score was inactive: 0.0193.

As for GGAUUAUGAGAAUCAAACCTT against Serpina10, the z-score was inactive: 1.44.

Consider CCUCAAGCCCAAGUAAGACTT against Dp1l1, for which the z-score was inactive: 0.42.

Turning to GCAAAUAGGGAGGUUCCUGTT against Ypel1, the z-score is inactive: -0.597.

As for “GCCUUUUGUACUAAGGUCCTT against 2610041B18Rik”, the z-score was inactive: 0.433.

In the case of “CCUUAGACUGUUCAGUCCUTT against 4633402N23Rik”, the z-score was inactive: -0.471.

In the case of GGAACCAAUCUUGGUCUCATT against Tln2, the z-score was inactive: -0.513.

Consider CCAACGAUGCUGUCAGAAATT against Gys2, for which the z-score is inactive: -1.49.

As to GGAGGAAGAAAUGGUCUGGTT against Tsga8, the z-score is inactive: -1.65.

Take GGCUUUCUCGUUUUGAUAUTT against Nln: the z-score was inactive: -1.61.

On to GGCCUUUAAACAGAUUGAATT against Zfp37, for which the z-score was inactive: 1.51.

With CCCUUGAGUCAAAUGUCACTT against BC049730, the z-score was inactive: 0.14.

On to GGCCUUCAGUGACAAAGACTT against Dmrt3, for which the z-score is inactive: 0.768.

CCACUAAUCUUCUUCUACATT against Olfr1311: the z-score is inactive: 1.24.

Consider GCCUUAAUGCUUCAAGGUGTT against Hspd1, for which the z-score was inactive: 0.477.

As to GGAACUUGGGUGAAUAAAUTT against Serpind1, the z-score is inactive: -1.5.

On to “GUAUUUCUACUAUGUGGAUTT against C030006K11Rik”, for which the z-score was inactive: 0.406.

Take CCGUGAAUGUGAUAAUCCATT against Adamts8: the z-score was inactive: 2.5.

Turning to GGCGCAUUCAUGUAUCUUCTT against Olfr908, the z-score was inactive: -0.455.

As to CCUACCUGGUAGCAAGAAATT against Gphn, the z-score was inactive: -1.18.

On to GCCCAUUGUAAUAAAAGCCTT against Dnali1, for which the z-score was inactive: 1.6.

As for GGCCAUAAACAACCAUUUATT against Ppp1r1b, the z-score is inactive: -0.065.

For the sequence GCUCAUUUGCACAACAUGCTT against Bcl11b, the z-score was inactive: 0.657.

For the sequence GGCGGAAACUCAAGUUCUUTT against Mcoln3, the z-score was inactive: 1.01.

Turning to “GGUUUCUUCUUCUGUUCAUTT against 2310008M10Rik”, the z-score is inactive: -1.92.

Turning to GGCCAAGAAGAAGAAGAGATT against Ttf1, the z-score was inactive: -1.99.

As for CCCAGGUGAGGAUUGAUAATT against Rit2, the z-score was inactive: -1.61.

“GGAAAUAGCUAAUCAGAAATT against 2610304F09Rik”: the z-score is inactive: -2.71.

GCAUGUCAUCCACAAAUACTT against Dpm2: the z-score is inactive: 2.2.

Take GCGACCAGGACCGCGUCAATT against Sox3: the z-score was inactive: 1.84.

GGUCUUCUAUGGGAUCAUGTT against Entpd6: the z-score was inactive: 1.17.

With “GGACUACCUGUGAAGCAAUTT against 2310020P08Rik”, the z-score was inactive: -0.369.

For the sequence CAUCUCUCCACCAAUUCACTT against Lphn3, the z-score was inactive: 0.0302.

On to “GCUAACCCUCGUUUAGAAGTT against 2310016F22Rik”, for which the z-score is inactive: 0.0482.
